Results as given in PMC11842803.
No constants are given. Whether binding was seen depends on the method and setting. Binding seen in cells or lysates may run through a third protein. Some entries that bind do so weakly or less than the wild type.

Chains of the proteins cited; added tags and fusions are not shown.
UniProt Q9EPK5: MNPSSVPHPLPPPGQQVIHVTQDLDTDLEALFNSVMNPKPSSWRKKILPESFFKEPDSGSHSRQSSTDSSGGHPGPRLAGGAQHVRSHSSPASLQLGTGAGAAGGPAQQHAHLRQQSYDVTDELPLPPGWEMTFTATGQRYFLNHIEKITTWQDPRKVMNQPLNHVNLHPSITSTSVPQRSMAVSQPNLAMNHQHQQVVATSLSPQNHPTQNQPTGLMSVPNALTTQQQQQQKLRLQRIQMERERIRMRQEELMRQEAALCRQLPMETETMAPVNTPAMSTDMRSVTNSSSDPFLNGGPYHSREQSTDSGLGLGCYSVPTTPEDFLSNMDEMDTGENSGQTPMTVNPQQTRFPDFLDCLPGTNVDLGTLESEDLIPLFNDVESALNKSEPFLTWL
UniProt P46938: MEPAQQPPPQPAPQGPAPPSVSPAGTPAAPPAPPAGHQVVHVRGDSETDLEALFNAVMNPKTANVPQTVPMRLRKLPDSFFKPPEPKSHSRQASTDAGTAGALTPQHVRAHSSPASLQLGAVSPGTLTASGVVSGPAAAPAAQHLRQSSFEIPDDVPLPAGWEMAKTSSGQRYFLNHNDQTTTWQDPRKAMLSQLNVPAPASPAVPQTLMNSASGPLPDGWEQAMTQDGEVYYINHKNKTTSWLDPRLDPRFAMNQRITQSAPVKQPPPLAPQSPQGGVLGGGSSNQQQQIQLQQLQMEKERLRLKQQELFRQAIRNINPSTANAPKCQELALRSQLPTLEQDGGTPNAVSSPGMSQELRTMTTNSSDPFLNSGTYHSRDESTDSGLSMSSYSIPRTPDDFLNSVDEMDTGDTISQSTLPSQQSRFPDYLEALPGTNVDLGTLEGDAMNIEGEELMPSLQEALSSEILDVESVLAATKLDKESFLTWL
UniProt Q9GZV5: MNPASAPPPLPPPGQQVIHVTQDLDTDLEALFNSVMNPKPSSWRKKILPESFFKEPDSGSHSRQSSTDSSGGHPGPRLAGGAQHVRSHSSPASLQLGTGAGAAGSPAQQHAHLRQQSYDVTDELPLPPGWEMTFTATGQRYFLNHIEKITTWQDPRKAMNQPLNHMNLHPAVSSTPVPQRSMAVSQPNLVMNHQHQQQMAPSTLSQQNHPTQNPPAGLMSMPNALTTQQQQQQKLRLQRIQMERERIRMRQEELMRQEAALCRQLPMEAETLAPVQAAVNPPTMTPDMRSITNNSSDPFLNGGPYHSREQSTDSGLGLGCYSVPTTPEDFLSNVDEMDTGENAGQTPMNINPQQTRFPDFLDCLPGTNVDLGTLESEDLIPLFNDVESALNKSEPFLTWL
UniProt P46937: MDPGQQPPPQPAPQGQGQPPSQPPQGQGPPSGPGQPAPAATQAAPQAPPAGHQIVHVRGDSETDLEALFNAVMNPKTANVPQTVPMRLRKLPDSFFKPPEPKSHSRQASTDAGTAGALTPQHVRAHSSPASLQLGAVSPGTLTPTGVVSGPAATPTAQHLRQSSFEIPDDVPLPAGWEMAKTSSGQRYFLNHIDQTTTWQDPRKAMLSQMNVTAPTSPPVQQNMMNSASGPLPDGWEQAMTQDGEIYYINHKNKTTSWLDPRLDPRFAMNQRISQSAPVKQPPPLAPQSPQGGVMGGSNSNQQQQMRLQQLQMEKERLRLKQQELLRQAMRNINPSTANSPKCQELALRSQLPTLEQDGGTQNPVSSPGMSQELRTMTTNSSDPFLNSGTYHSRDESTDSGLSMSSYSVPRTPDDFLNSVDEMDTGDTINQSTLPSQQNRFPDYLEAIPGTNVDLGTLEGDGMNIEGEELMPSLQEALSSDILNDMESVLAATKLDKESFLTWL
UniProt P48432: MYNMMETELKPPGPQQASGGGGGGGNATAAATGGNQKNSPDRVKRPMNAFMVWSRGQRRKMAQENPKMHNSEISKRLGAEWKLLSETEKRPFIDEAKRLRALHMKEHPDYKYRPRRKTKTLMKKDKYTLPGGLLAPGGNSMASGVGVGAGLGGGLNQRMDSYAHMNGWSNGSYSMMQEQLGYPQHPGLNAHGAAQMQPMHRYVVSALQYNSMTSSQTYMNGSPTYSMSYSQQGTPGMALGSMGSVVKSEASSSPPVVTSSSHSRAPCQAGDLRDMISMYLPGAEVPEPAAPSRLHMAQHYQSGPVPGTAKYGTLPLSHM
UniProt O00429: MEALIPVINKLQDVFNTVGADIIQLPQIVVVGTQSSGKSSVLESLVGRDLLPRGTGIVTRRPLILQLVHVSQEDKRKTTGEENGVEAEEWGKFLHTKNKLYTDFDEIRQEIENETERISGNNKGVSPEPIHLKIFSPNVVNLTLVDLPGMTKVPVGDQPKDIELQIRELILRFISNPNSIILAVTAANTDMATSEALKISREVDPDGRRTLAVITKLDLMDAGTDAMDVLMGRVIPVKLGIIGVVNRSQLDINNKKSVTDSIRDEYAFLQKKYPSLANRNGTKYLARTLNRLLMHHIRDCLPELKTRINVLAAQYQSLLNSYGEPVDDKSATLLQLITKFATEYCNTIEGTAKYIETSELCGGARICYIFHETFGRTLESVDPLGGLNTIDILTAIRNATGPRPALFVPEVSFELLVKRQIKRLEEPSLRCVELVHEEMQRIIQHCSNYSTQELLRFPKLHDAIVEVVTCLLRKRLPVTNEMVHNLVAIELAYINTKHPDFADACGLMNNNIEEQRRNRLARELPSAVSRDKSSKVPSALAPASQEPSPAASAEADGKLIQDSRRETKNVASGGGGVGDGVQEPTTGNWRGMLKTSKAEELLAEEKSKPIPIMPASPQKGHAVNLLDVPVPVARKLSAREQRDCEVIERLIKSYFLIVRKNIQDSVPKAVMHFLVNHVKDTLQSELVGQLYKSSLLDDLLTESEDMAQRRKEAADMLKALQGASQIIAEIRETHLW
UniProt P48431: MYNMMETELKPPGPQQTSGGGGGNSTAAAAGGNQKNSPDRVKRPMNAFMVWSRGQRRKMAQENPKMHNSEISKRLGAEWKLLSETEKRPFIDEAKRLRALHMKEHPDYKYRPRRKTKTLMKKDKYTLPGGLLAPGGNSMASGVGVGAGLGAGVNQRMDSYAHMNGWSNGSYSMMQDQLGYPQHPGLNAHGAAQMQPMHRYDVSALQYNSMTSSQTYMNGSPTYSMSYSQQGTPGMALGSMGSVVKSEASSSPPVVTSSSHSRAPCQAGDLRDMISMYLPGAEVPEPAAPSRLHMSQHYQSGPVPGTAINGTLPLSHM

Columns and labels:
[1] = biological target: TAZ (mouse) (mouse (endogenous in BALB/c mammary tissue and 4T1 tumors)) (UniProt Q9EPK5); assay: co-IP; anti-YAP or anti-TAZ antibody (control IgG); ALDH+ and ALDH- cells sorted from normal mouse mammary tissue and 4T1-induced mammary tumors; immunoblot
[2] = biological target: YAP (mouse) (mouse (endogenous in BALB/c mammary tissue and 4T1 tumors)) (UniProt P46938); assay: as above
[3] = biological target: TAZ (transcriptional co-activator with PDZ-binding motif) (human (endogenous in patient breast tissue and MDA-MB-231)) (UniProt Q9GZV5); assay: co-IP; anti-YAP or anti-TAZ antibody (control IgG) overnight at 4 °C, protein A/G beads; nuclear and cytoplasmic fractions of MDA-MB-231 mammospheres (also adherent cells; also mammospheres treated with 4 µM verteporfin); immunoblot
[4] = biological target: YAP (yes-associated protein) (human (endogenous in patient breast tissue and MDA-MB-231)) (UniProt P46937); assay: as above
[5] = biological target: TAZ (transcriptional co-activator with PDZ-binding motif) (human (endogenous in patient breast tissue and MDA-MB-231)) (UniProt Q9GZV5); assay: co-IP; anti-YAP or anti-TAZ antibody (control IgG); nucleus and cytoplasm of CD44+/CD24- cells (CSCs) and of the rest of the cells (non-CSCs) sorted from patient breast tumors; immunoblot
[6] = biological target: YAP (yes-associated protein) (human (endogenous in patient breast tissue and MDA-MB-231)) (UniProt P46937); assay: as above
[7] = biological target: TAZ (transcriptional co-activator with PDZ-binding motif) (human (endogenous in patient breast tissue and MDA-MB-231)) (UniProt Q9GZV5); assay: co-IP; anti-YAP or anti-TAZ antibody (control IgG) overnight at 4 °C, protein A/G beads; nuclear and cytoplasmic fractions of chemo-treated patient breast tumors and adjacent normal tissue; immunoblot
[8] = biological target: YAP (yes-associated protein) (human (endogenous in patient breast tissue and MDA-MB-231)) (UniProt P46937); assay: as above
[9] = biological target: TAZ (transcriptional co-activator with PDZ-binding motif) (human (endogenous in patient breast tissue and MDA-MB-231)) (UniProt Q9GZV5); assay: co-IP; anti-YAP or anti-TAZ antibody (control IgG); ALDH+ and ALDH- cells sorted from patient breast tumors and adjacent normal tissue, nucleus; immunoblot
[10] = biological target: YAP (yes-associated protein) (human (endogenous in patient breast tissue and MDA-MB-231)) (UniProt P46937); assay: as above

Measured: binding

SOX2 (mouse) (from UniProt P48432 1-319)
binds: [1] | [2]

TAZ (mouse) (from UniProt Q9EPK5 1-395)
binds: [2]

DRP1 (from UniProt O00429 1-736)
binds: [3] | [4] | [5] | [6] | [7] | [8]

SOX2 (from UniProt P48431 1-317)
not listed: [1] | [2]
binds: all other assays above
